# PMC7819943, “Rice protein-binding microarrays: a tool to detect cis-acting elements near promoter regions in rice”
# Amino acid sequences for entries named in this document (tags omitted).
# UniProt Q0JBA9, entry or part of it: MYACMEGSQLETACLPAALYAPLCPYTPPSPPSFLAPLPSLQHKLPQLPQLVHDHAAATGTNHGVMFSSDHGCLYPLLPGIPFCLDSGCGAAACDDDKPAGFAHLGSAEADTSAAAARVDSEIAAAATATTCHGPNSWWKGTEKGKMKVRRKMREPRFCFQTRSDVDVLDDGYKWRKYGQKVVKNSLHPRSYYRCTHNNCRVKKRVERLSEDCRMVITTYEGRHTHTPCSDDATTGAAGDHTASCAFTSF
# This is one part of the list.
# Molecular target: OsWRKY34 (Oryza sativa, UniProt Q0JBA9 1-250)
# Test: protein-binding microarray (RPBM); PBS, 2% BSA, 51.3 ng/ul salmon testes DNA, 50 uM zinc acetate, 200 nM TF, 25 C, 1 h; high values mean tight binding
# Conditions: protein: recombinant; tags: N-terminal polyhistidine and DsRed monomer fusion (pET32a); label: CyDye5-dUTP incorporated in the synthesized complementary strand; 3' TTTTT single-stranded linker to array surface; dsDNA, one strand shown
# How it was run: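 An Axon 4000B scanner gave the binding signal as per-feature fluorescence intensity in arbitrary units. This followed washing of a custom Agilent array that had been incubated for 1 h at 25 °C with 200 nM protein in PBS, 2% BSA, salmon testes DNA and 50 µM zinc acetate. The proteins were transcription factors fused at the N-terminus to polyhistidine and DsRed, expressed in E. coli BL21-CodonPlus and purified on Ni–NTA.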
row,Sequence,binding signal
1,CTACGGGCCTGCCTCATCCAGCCATCCTTGTCTCAACTACCGGAGTCACCTAGTGCAG,10500 fluorescence intensity (a.u.)
2,ATTGTTGTCATGTGTTGAAATATTATCATATATTAATATTCGGAGTCACCTAGTGCAG,8540 fluorescence intensity (a.u.)
3,TTGTGTGGTGTGGTTGAGCTGAGGTGTAGTTAGGACAGTGCGGAGTCACCTAGTGCAG,8320 fluorescence intensity (a.u.)
4,ACACCATTGACTTTTTAGCATATGTTTAACCGTTTGTCTTCGGAGTCACCTAGTGCAG,13900 fluorescence intensity (a.u.)
5,TAGATCGCACACCGCCAATTCGTCATGTTTGACGTACAACCGGAGTCACCTAGTGCAG,8680 fluorescence intensity (a.u.)
6,CAACAACAACACACAGCAACAGGCCTACCATATCGCGAGACGGAGTCACCTAGTGCAG,8590 fluorescence intensity (a.u.)
7,TCCAGTTTATTCAGGGCTTGCCACACGTCCATCCAGTATCCGGAGTCACCTAGTGCAG,9740 fluorescence intensity (a.u.)
8,CCTTATTTCTTGCTCCTGACTCAATCGCCTCCACCGACCACGGAGTCACCTAGTGCAG,8550 fluorescence intensity (a.u.)
9,GCCACGGGCAGAATTAGCGCGGCGCGGGCGGGGTGGTTAGCGGAGTCACCTAGTGCAG,9400 fluorescence intensity (a.u.)
10,CATATCTGCATGCGTTGTTTGACCTGCCTACATATATTTACGGAGTCACCTAGTGCAG,8930 fluorescence intensity (a.u.)
11,TAATTCCCAACTCCTTCCGCCTCGTTTTTCATGCGCACGCCGGAGTCACCTAGTGCAG,8510 fluorescence intensity (a.u.)
12,CCGCCACACCGGCTCCACCTACCCACCCACGTAATCACGTCGGAGTCACCTAGTGCAG,8310 fluorescence intensity (a.u.)
13,GGGTGGGGAAATTTCGTCGTCGCGATGGGCCGGGGCCCACCGGAGTCACCTAGTGCAG,11900 fluorescence intensity (a.u.)
14,TCGTCGCCCTATTCCTCTTACTCTTCTCCATGGCCATCAACGGAGTCACCTAGTGCAG,10100 fluorescence intensity (a.u.)
15,ACATTATGTTTCGATTTTTTATCGCAGGTTTGGAATTCTGCGGAGTCACCTAGTGCAG,8440 fluorescence intensity (a.u.)
16,GTCTATTGTTTTTCACGTGCACGTTTCCAAACGACTAAAACGGAGTCACCTAGTGCAG,8140 fluorescence intensity (a.u.)
17,TGCCGCGTCCGAGTCCAAAGCCAAACTGTCATCCATCCGCCGGAGTCACCTAGTGCAG,8190 fluorescence intensity (a.u.)
18,CCTCGGCCTCGAATTTCGTCTCCTCGCCCGCCGCTTGCGCCGGAGTCACCTAGTGCAG,13000 fluorescence intensity (a.u.)
19,ATATATATATATATATATATATATATATATACAGTTCACACGGAGTCACCTAGTGCAG,8620 fluorescence intensity (a.u.)
20,GCTATCTTTTCACTCATATCTATACTTATGCTTATAAAATCGGAGTCACCTAGTGCAG,9090 fluorescence intensity (a.u.)
21,CCTGTGCCGTGCCAGGCTGCCCGTTACTGATAAACTTCGACGGAGTCACCTAGTGCAG,8040 fluorescence intensity (a.u.)
22,TTAGGTCGGAGTGAGTTTTGATTGTACTACTCCATGTTTACGGAGTCACCTAGTGCAG,9330 fluorescence intensity (a.u.)
23,CTCATTGACATTTTCAGTTGGTAATCAGTACACTTGTTCCCGGAGTCACCTAGTGCAG,9990 fluorescence intensity (a.u.)

# Looked up above.
# TCGTCGCCCTATTCCTCTTACTCTTCTCCATGGCCATCAACGGAGTCACCTAGTGCAG – binding signal: 10100 fluorescence intensity (a.u.)
# ACACCATTGACTTTTTAGCATATGTTTAACCGTTTGTCTTCGGAGTCACCTAGTGCAG – binding signal: 13900 fluorescence intensity (a.u.)
